From the supplement of paper PMC10849652
The list shows a part of the results.

Sequences of proteins named here, by UniProt entry; tags and fusion partners are left off. A change or cut given only in a name is not applied to a line headed by its entry.
UniProt Q9H9B1: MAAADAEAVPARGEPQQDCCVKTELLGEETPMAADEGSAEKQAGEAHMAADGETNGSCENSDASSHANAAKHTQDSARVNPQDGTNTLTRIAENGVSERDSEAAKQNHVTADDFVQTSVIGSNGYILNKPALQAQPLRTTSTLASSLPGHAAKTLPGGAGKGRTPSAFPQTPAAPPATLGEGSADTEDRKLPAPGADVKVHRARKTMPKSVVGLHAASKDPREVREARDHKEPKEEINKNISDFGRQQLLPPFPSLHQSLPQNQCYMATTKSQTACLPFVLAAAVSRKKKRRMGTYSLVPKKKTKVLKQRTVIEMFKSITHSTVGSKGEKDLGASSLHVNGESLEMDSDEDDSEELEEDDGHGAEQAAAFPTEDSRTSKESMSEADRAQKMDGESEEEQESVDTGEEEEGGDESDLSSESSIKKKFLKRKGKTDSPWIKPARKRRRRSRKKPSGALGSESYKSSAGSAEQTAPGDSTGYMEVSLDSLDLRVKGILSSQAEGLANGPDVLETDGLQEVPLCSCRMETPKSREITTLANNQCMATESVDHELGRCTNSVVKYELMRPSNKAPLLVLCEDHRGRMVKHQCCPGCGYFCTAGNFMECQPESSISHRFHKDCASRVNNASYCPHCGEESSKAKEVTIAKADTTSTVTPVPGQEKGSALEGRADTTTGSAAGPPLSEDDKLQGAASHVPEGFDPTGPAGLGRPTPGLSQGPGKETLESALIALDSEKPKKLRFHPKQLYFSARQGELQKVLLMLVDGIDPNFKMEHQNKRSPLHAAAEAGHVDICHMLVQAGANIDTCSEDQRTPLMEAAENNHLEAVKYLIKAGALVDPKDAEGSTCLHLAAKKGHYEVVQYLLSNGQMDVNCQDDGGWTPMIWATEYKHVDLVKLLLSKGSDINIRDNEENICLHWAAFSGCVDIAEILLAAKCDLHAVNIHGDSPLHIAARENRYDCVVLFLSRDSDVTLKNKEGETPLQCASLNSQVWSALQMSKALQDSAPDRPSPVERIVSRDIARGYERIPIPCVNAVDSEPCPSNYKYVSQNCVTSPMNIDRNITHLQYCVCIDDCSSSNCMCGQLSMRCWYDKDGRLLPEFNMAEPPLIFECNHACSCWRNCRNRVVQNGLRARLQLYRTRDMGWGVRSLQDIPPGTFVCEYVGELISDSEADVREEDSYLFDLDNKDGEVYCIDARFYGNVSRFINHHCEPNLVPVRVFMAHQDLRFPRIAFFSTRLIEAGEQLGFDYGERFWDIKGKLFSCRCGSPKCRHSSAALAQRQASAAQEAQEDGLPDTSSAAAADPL
UniProt Q9NRR4: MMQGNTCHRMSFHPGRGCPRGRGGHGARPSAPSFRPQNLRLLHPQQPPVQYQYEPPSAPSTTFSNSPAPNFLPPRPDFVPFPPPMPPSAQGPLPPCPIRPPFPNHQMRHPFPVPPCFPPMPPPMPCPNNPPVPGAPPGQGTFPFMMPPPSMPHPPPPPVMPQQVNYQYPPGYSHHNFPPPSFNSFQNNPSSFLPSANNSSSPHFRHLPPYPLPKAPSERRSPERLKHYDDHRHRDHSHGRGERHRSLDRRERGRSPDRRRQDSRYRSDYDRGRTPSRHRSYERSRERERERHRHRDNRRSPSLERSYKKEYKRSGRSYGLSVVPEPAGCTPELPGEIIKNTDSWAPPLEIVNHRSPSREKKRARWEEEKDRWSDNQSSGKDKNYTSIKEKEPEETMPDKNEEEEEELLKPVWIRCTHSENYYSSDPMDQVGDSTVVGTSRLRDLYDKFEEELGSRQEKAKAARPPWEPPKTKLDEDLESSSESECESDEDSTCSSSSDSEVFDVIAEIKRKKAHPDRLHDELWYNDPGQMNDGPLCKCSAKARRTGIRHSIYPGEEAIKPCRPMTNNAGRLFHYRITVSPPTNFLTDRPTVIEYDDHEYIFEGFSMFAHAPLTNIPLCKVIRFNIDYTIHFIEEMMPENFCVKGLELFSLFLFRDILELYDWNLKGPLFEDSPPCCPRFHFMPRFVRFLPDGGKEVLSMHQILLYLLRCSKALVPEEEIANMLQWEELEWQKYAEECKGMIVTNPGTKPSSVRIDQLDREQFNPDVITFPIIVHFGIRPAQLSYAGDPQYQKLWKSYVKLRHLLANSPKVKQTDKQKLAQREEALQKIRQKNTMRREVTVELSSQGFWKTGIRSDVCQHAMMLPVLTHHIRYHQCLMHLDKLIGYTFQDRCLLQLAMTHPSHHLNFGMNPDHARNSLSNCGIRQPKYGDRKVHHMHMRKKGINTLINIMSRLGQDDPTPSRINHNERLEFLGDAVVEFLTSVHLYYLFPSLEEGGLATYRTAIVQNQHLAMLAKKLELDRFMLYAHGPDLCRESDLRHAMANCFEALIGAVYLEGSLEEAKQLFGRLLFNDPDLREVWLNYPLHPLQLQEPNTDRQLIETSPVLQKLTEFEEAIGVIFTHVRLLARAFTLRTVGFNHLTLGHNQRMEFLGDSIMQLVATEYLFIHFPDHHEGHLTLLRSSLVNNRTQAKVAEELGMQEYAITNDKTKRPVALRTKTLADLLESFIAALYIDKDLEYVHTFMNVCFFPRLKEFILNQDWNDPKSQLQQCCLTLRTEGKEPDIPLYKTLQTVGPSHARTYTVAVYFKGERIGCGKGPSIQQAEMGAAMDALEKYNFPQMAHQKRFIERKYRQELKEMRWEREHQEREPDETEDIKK
UniProt Q15125: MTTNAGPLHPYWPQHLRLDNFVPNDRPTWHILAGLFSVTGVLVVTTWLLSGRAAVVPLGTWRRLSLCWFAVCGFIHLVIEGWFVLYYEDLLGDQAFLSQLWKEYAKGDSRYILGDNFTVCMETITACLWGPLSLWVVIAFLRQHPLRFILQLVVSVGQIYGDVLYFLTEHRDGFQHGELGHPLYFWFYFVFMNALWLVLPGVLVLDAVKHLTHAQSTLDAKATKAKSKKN
UniProt Q9H2P9: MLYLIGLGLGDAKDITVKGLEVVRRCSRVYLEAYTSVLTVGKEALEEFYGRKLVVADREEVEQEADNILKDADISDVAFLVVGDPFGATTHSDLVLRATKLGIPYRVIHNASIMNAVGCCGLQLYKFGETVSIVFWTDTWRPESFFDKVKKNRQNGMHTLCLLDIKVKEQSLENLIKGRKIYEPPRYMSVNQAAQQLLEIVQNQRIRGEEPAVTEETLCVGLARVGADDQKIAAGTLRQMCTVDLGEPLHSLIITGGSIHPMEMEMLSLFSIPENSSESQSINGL
UniProt Q9NY33: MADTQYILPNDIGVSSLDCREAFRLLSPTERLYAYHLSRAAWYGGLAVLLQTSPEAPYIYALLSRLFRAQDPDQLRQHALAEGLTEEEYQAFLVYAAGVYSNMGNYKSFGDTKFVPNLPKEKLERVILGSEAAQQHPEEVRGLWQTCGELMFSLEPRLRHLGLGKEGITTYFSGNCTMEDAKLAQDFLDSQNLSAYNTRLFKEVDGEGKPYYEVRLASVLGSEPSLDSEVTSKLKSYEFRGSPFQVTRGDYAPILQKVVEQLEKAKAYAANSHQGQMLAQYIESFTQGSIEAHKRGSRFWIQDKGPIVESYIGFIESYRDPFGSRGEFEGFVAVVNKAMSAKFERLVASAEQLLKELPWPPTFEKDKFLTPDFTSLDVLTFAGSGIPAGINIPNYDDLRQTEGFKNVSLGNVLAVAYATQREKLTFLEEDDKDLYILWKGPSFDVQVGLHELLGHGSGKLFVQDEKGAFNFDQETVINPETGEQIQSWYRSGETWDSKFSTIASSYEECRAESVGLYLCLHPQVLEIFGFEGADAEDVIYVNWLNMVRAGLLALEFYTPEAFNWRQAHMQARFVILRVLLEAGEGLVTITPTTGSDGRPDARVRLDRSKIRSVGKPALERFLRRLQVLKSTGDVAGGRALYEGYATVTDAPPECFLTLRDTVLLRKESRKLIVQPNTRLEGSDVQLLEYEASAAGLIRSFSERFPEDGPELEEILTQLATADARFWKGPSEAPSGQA
UniProt P30084: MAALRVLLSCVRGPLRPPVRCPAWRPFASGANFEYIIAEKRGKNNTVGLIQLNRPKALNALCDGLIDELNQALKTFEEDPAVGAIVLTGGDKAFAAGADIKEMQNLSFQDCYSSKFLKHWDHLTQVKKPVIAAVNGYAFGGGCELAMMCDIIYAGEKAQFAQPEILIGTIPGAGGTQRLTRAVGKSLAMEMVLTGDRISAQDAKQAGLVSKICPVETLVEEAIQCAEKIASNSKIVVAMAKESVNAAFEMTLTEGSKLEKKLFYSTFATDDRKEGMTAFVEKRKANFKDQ
UniProt P51452: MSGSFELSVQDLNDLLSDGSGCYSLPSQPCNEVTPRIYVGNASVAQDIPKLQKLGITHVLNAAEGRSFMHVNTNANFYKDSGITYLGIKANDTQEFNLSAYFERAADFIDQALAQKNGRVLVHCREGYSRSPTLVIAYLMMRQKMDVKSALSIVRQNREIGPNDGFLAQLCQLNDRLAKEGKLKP
UniProt O14641: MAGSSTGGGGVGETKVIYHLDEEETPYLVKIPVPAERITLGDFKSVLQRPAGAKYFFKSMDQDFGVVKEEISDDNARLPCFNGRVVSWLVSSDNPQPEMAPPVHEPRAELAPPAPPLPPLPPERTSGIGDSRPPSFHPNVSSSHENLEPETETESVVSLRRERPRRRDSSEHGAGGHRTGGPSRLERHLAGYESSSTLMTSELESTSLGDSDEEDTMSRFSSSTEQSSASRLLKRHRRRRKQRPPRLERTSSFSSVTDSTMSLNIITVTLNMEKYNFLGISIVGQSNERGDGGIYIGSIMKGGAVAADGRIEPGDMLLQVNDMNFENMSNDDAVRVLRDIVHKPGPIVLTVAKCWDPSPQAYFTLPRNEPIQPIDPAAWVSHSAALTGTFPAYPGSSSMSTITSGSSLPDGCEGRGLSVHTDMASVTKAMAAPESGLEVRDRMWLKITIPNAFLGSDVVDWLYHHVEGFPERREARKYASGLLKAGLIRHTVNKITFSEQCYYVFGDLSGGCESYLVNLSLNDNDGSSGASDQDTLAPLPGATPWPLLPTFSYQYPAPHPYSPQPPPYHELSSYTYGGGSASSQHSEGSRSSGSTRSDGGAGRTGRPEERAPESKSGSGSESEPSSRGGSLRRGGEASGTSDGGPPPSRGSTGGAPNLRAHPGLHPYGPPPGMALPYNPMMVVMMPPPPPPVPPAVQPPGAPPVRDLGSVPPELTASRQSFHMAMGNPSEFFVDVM
UniProt P33316: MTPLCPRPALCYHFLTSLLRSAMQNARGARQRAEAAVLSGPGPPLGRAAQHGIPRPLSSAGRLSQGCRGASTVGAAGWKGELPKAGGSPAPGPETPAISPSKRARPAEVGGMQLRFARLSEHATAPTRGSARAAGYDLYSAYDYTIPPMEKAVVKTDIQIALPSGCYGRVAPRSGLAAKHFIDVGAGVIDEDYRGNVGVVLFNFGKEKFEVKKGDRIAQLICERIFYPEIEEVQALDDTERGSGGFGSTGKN
UniProt Q8N6R0: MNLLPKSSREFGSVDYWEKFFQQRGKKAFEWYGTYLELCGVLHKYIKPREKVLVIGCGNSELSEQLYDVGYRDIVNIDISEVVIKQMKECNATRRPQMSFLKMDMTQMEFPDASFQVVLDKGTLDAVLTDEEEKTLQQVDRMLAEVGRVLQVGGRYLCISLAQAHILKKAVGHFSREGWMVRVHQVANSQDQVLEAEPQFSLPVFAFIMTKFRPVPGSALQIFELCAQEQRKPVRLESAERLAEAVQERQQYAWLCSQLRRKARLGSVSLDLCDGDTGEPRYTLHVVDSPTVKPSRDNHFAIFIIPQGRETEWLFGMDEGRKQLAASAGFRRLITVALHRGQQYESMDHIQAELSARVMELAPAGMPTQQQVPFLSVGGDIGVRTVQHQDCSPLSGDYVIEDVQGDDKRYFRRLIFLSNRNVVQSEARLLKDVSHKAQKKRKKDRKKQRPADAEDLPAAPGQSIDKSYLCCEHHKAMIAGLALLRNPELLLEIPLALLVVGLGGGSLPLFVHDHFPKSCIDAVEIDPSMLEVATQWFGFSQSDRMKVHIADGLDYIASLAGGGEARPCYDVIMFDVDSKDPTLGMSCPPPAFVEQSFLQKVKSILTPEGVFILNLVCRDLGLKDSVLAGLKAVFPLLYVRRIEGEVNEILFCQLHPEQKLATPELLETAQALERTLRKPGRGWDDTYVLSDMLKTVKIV
UniProt Q9BUP0: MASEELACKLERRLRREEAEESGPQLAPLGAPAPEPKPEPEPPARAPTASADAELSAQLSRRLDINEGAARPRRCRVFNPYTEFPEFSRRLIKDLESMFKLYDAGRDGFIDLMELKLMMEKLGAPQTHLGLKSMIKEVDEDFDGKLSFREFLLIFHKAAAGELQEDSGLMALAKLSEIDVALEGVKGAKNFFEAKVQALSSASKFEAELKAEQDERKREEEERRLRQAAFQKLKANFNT
UniProt P0DPD7: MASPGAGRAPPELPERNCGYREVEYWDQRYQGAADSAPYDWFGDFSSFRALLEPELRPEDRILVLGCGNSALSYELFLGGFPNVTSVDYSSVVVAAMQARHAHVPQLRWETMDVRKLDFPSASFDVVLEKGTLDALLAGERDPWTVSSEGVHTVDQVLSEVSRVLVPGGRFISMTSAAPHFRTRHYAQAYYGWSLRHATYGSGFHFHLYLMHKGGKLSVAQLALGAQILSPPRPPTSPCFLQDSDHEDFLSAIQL

Tests used:
Assay in all cases: log2 fold change, soluble protein after heating vs DMSO (PISA); higher = thermal stabilisation; K562 lysate, 10 uM; active = over 0.2 and 3.5 SD of the protein, either way, in both replicates (recomputed)
[1] = compound: CCCS(=O)(=O)Nc1ccc(F)c(C(=O)c2c[nH]c3ncc(-c4ccc(Cl)cc4)cc23)c1F [vemurafenib]
How it was run: (§1)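 Pellets of K562 cells were dounce-homogenised in PBS pH 7.4 with 1 mM MgCl2, and the crude extract was held at 1 mg/mL protein for a 30 min treatment with 10 μM compound. Aliquots were heated for 3 min over 48°C-58°C and pooled before NP-40 was added to 0.5% at 4°C. The supernatant from 21,000xg for 90 min was quantified by TMTpro 16plex LC-MS/MS with channel sums equalised. Values are reported from duplicates as log-two fold change in thermal stability relative to solvent controls.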

[2] = compound: CCCS(=O)(=O)Nc1ccc(F)c(C(=O)c2c[nH]c3ncc(Cl)cc23)c1F
How it was run: as §1

[3] = compound: CCN(CCCOc1ccc2c(Nc3cc(CC(=O)Nc4cccc(F)c4)[nH]n3)ncnc2c1)CCOP(=O)(O)O [barasertib]
How it was run: as §1

[4] = compound: CC[C@@H]1C(=O)N(C)c2cnc(Nc3ccc(C(=O)NC4CCN(C)CC4)cc3OC)nc2N1C1CCCC1
How it was run: as §1

[5] = compound: CC[C@@H]1C(=O)N(C)c2cnc(Nc3ccc(C(=O)N[C@H]4CC[C@H](N5CCN(CC6CC6)CC5)CC4)cc3OC)nc2N1C(C)C [volasertib]
How it was run: as §1

[6] = compound: CCn1c(C(=O)N(C2CC2)C2CC2)cc2c3c(ncn3C)c(Nc3cc(C)n(C)n3)nc21
How it was run: as §1

[7] = compound: CCn1cc(-c2ccnc3[nH]c(-c4cccc(CN(C)C)c4)cc23)c(-c2ccc(NC(=O)N(C)C)cc2)n1
How it was run: as §1

[8] = compound: CN1CCC(CNc2ccc3ncc(-c4cccc(OC(F)(F)F)c4)n3n2)CC1
How it was run: as §1

[9] = compound: CN1CCN(CCOc2cc(OC3CCOCC3)c3c(Nc4c(Cl)ccc5c4OCO5)ncnc3c2)CC1 [saracatinib]
How it was run: as §1

[10] = compound: CN1CCN(c2nc(C3=C(c4c[nH]c5ccccc45)C(=O)NC3=O)c3ccccc3n2)CC1 [sotrastaurin]
How it was run: as §1

[11] = compound: CN1CC[C@H](c2c(O)cc(O)c3c(=O)cc(-c4ccccc4Cl)oc23)[C@H](O)C1 [alvocidib]
How it was run: as §1

[12] = compound: CN1CCc2c(c3ccccc3n2Cc2ccc(C(=O)NO)cc2)C1 [Tubastatin A]
How it was run: as §1

[13] = compound: CNC(=O)C1=CC=CC=C1NC2=NC(=NC=C2Cl)NC3=C(C=C(C=C3)N4CCOCC4)OC
How it was run: as §1

[14] = compound: CNC(=O)c1ccc(Nc2ncc(C(F)(F)F)c(NCc3nccnc3N(C)S(C)(=O)=O)n2)cc1 [defactinib]
How it was run: as §1

[15] = compound: CNc1nc(-c2ccc3c(N)n[nH]c3c2)cc(N2C[C@@H](C(=O)NC3CCCCC3)CC[C@H]2C)n1
How it was run: as §1

[16] = compound: COC(=O)N[C@@H](C)CNc1nccc(-c2cn(C(C)C)nc2-c2cc(Cl)cc(NS(C)(=O)=O)c2F)n1 [encorafenib]
How it was run: as §1

[17] = compound: COC(=O)[C@H](CCSC)NC(=O)C1=C(C=C(C=C1)NC[C@H](CS)N)C2=CC=CC=C2
How it was run: as §1

[18] = compound: COc1cc(Nc2ncc3c(n2)-c2ccc(Cl)cc2C(c2c(F)cccc2OC)=NC3)ccc1C(=O)O [alisertib]
How it was run: as §1

[19] = compound: COc1cc2nc(-c3cc(F)ccc3O)nc(N[C@@H]3CNC[C@H]3C(C)(C)O)c2cc1OC
How it was run: as §1

[20] = compound: COc1cc2ncnc(Nc3ccc(F)c(Cl)c3)c2cc1OCCCN1CCOCC1 [gefitinib]
How it was run: as §1

Row | Target | log2 fold change [1] | log2 fold change [2] | log2 fold change [3] | log2 fold change [4] | log2 fold change [5] | log2 fold change [6] | log2 fold change [7] | log2 fold change [8] | log2 fold change [9] | log2 fold change [10] | log2 fold change [11] | log2 fold change [12] | log2 fold change [13] | log2 fold change [14] | log2 fold change [15] | log2 fold change [16] | log2 fold change [17] | log2 fold change [18] | log2 fold change [19] | log2 fold change [20]
1 | EHMT1 (UniProt Q9H9B1) | inactive: 0.045 | inactive: -0.004 | inactive: 0.026 | inactive: -0.037 | inactive: -0.056 | inactive: -0.085 | inactive: -0.118 | inactive: 0.024 | inactive: -0.011 | inactive: -0.035 | inactive: -0.063 | inactive: -0.033 | inactive: 0.032 | inactive: -0.001 | inactive: 0.15 | inactive: 0.033 | inactive: 0.03 | inactive: -0.037 | inactive: -0.013 | inactive: 0.038
2 | EHBP1 isoform 2 (UniProt Q8NDI1) | inactive: 0.117 | inactive: 0 | inactive: 0.058 | inactive: 0.067 | inactive: -0.015 | inactive: -0.085 | inactive: 0.084 | inactive: -0.034 | inactive: 0.045 | inactive: 0.046 | inactive: -0.023 | inactive: 0.027 | inactive: 0.03 | inactive: -0.016 | inactive: 0.01 | inactive: 0.023 | inactive: 0.016 | inactive: 0.012 | inactive: -0.005 | inactive: 0.044
3 | DROSHA (UniProt Q9NRR4) | inactive: -0.065 | inactive: 0.095 | inactive: 0.089 | inactive: -0.066 | inactive: -0.057 | inactive: 0.034 | inactive: 0.06 | inactive: -0.091 | inactive: 0.022 | inactive: 0.125 | inactive: -0.041 | inactive: -0.15 | inactive: -0.029 | inactive: -0.046 | inactive: 0.009 | inactive: 0.057 | inactive: 0.065 | inactive: 0.048 | inactive: -0.079 | inactive: 0.079
4 | EBP (UniProt Q15125) | inactive: 0.056 | inactive: 0.024 | inactive: 0.069 | inactive: 0.071 | inactive: 0.038 | inactive: -0.024 | inactive: -0.354 | inactive: 0.044 | inactive: 0.135 | inactive: -0.103 | inactive: -0.003 | inactive: 0.004 | inactive: 0.087 | inactive: 0.028 | active: 0.291 | inactive: 0.005 | inactive: -0.016 | inactive: -0.036 | inactive: 0.048 | inactive: 0.04
5 | DPH5 isoform 5 (UniProt Q9H2P9) | inactive: 0.144 | inactive: 0.016 | inactive: -0.05 | inactive: 0.16 | inactive: 0.273 | inactive: -0.011 | inactive: 0.182 | inactive: 0.033 | inactive: -0.029 | inactive: 0.049 | inactive: -0.012 | inactive: 0.02 | inactive: 0.119 | inactive: -0.002 | inactive: 0.02 | inactive: -0.044 | inactive: -0.024 | inactive: -0.045 | inactive: -0.018 | inactive: 0.04
6 | EEA1 (UniProt Q15075) | inactive: -0.014 | inactive: -0.005 | inactive: -0.014 | inactive: 0.016 | inactive: 0.022 | inactive: -0.012 | inactive: 0.066 | inactive: -0.006 | inactive: -0.002 | inactive: 0.008 | inactive: 0.001 | inactive: 0.043 | inactive: -0.024 | inactive: -0.009 | inactive: 0.002 | inactive: -0.007 | inactive: -0.048 | inactive: -0.018 | inactive: 0.008 | inactive: -0.01
7 | DPP3 (UniProt Q9NY33) | inactive: -0.014 | inactive: -0.001 | inactive: 0.013 | inactive: -0.048 | inactive: -0.027 | inactive: 0.01 | inactive: 0.069 | inactive: -0.091 | inactive: -0.023 | inactive: -0.028 | inactive: 0.032 | inactive: -0.002 | inactive: 0.005 | inactive: -0.03 | inactive: -0.042 | inactive: -0.028 | inactive: 0.185 | inactive: 0.009 | inactive: -0.013 | inactive: -0.029
8 | ECHS1 (UniProt P30084) | inactive: 0.008 | inactive: 0.057 | inactive: -0.005 | inactive: -0.047 | inactive: 0 | inactive: 0.014 | inactive: -0.009 | inactive: -0.027 | inactive: -0.002 | inactive: 0.011 | inactive: 0.031 | inactive: -0.017 | inactive: 0.015 | inactive: 0.012 | inactive: -0.021 | inactive: -0.046 | inactive: 0.035 | inactive: -0.008 | inactive: 0.008 | inactive: -0.011
9 | DUSP3 (UniProt P51452) | inactive: 0.004 | inactive: 0.022 | inactive: 0.031 | inactive: -0.005 | inactive: 0.013 | inactive: 0.027 | inactive: -0.044 | inactive: -0.005 | inactive: 0.009 | inactive: -0.008 | inactive: 0.009 | inactive: 0.029 | inactive: 0 | inactive: 0.041 | inactive: 0.035 | inactive: 0.014 | inactive: -0.097 | inactive: -0.03 | inactive: -0.01 | inactive: -0.036
10 | EFL1 (UniProt Q7Z2Z2) | inactive: -0.014 | inactive: 0.03 | inactive: 0.01 | inactive: -0.031 | inactive: -0.02 | inactive: 0.003 | inactive: 0.067 | inactive: -0.025 | inactive: 0.005 | inactive: 0.01 | inactive: 0.03 | inactive: -0.034 | inactive: 0.043 | inactive: -0.006 | inactive: -0.018 | inactive: 0.003 | inactive: 0.04 | inactive: 0.015 | inactive: -0.007 | inactive: 0.002
11 | DPY19L1, A0A1B0GW05 | inactive: 0.092 | inactive: 0.013 | inactive: -0.1 | inactive: -0.008 | inactive: -0.008 | inactive: -0.038 | inactive: -0.022 | inactive: -0.012 | inactive: 0.018 | inactive: -0.007 | inactive: 0.047 | inactive: -0.031 | inactive: 0.052 | inactive: 0.004 | inactive: -0.056 | inactive: 0.03 | inactive: -0.079 | inactive: 0.08 | inactive: -0.096 | inactive: -0.002
12 | DVL2 (UniProt O14641) | inactive: 0.067 | inactive: -0.172 | inactive: 0.119 | inactive: -0.033 | inactive: 0 | inactive: 0.007 | inactive: 0.011 | inactive: -0.003 | inactive: 0.018 | inactive: -0.055 | inactive: 0.002 | inactive: -0.079 | inactive: -0.039 | inactive: 0.028 | inactive: -0.027 | inactive: -0.018 | inactive: -0.036 | inactive: 0.003 | inactive: -0.069 | inactive: 0.006
13 | DUT (UniProt P33316) | inactive: 0.032 | inactive: 0 | inactive: -0.086 | inactive: 0.031 | inactive: 0.026 | inactive: -0.028 | inactive: -0.088 | inactive: 0.067 | inactive: -0.018 | inactive: -0.034 | inactive: -0.027 | inactive: 0.036 | inactive: -0.002 | inactive: -0.022 | inactive: 0.013 | inactive: -0.026 | inactive: -0.039 | inactive: 0.034 | inactive: -0.014 | inactive: -0.01
14 | EEF1AKNMT (UniProt Q8N6R0) | inactive: -0.007 | inactive: 0.041 | inactive: 0.008 | inactive: -0.08 | inactive: -0.026 | inactive: 0.053 | inactive: -0.026 | inactive: -0.031 | inactive: -0.017 | inactive: 0.008 | inactive: 0.009 | inactive: -0.102 | inactive: 0.051 | inactive: -0.012 | inactive: -0.015 | inactive: 0.005 | inactive: 0.076 | inactive: -0.02 | inactive: 0.027 | inactive: -0.031
15 | EFHD1 (UniProt Q9BUP0) | inactive: 0.019 | inactive: 0.04 | inactive: 0.001 | inactive: -0.053 | inactive: 0.019 | inactive: 0.028 | inactive: -0.09 | inactive: 0.064 | inactive: -0.016 | inactive: 0.013 | inactive: -0.144 | inactive: 0.007 | inactive: 0.026 | inactive: 0.015 | inactive: 0.018 | inactive: 0.047 | inactive: -0.023 | inactive: -0.035 | inactive: 0.004 | inactive: 0.081
16 | EEF1AKMT4 (UniProt P0DPD7) | inactive: 0.135 | inactive: 0.008 | inactive: 0.126 | inactive: -0.025 | inactive: -0.072 | inactive: -0.035 | inactive: -0.129 | inactive: 0.052 | inactive: -0.033 | inactive: -0.004 | inactive: -0.029 | inactive: -0.027 | inactive: 0.074 | inactive: 0.03 | inactive: 0.188 | inactive: 0.042 | inactive: 0.012 | inactive: 0.037 | inactive: 0.068 | inactive: 0.004

Reprinted at random: 2 records from the list, in no set order.
Row | Target | log2 fold change [1] | log2 fold change [2] | log2 fold change [3] | log2 fold change [4] | log2 fold change [5] | log2 fold change [6] | log2 fold change [7] | log2 fold change [8] | log2 fold change [9] | log2 fold change [10] | log2 fold change [11] | log2 fold change [12] | log2 fold change [13] | log2 fold change [14] | log2 fold change [15] | log2 fold change [16] | log2 fold change [17] | log2 fold change [18] | log2 fold change [19] | log2 fold change [20]
3 | DROSHA (UniProt Q9NRR4) | inactive: -0.065 | inactive: 0.095 | inactive: 0.089 | inactive: -0.066 | inactive: -0.057 | inactive: 0.034 | inactive: 0.06 | inactive: -0.091 | inactive: 0.022 | inactive: 0.125 | inactive: -0.041 | inactive: -0.15 | inactive: -0.029 | inactive: -0.046 | inactive: 0.009 | inactive: 0.057 | inactive: 0.065 | inactive: 0.048 | inactive: -0.079 | inactive: 0.079
1 | EHMT1 (UniProt Q9H9B1) | inactive: 0.045 | inactive: -0.004 | inactive: 0.026 | inactive: -0.037 | inactive: -0.056 | inactive: -0.085 | inactive: -0.118 | inactive: 0.024 | inactive: -0.011 | inactive: -0.035 | inactive: -0.063 | inactive: -0.033 | inactive: 0.032 | inactive: -0.001 | inactive: 0.15 | inactive: 0.033 | inactive: 0.03 | inactive: -0.037 | inactive: -0.013 | inactive: 0.038
